The list is a part of this screen's results and no random one: it is rich in T/C values a quarter to a half above the control, in often repeated tests (any T/C) and in doses without a T/C. Other doses and runs of a compound stand elsewhere. T/C gives the treated animals as a percentage of the vehicle group. Some doses have a count of surviving animals in place of a T/C: the source files T/C as zero there, which appears to mark a toxic dose or a test without result, not a measured value. Some doses without a T/C left all or most animals alive at the check, yet need not have been tolerated: the source hardly ever lists a survival T/C far under the control, and the zero likely stands for such cases as well. Counts of survivors are from the toxicity check (mostly the fifth day) where no day follows; animals may have died later. Schedules are NCI's codes, read here as Q, the interval in days (D) or hours (H), X, the number of doses. Some entries were tested several times; the results are listed from low to high. For survival time, the PubChem record calls one and a half times the control and up active, and a quarter to a half above the control has no call in these data; cut-offs in other NCI protocols can differ. Some T/C values carry the count of animals alive at the toxicity check (mostly the fifth day); without a count, all were alive then.
Tested on: BDF1 mice, P388 leukemia ip, median survival T/C
Test: NCI In Vivo Anticancer Drug Screen. Data for tumor model P388 Leukemia (intraperitoneal) in B6D2F1 (BDF1) mice
Conditions: T/C endpoint: median survival time, higher T/C = longer survival
How it was run: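 Each value expresses how treatment altered survival: treated-mouse outcome over vehicle-mouse outcome, both groups bearing the transplanted tumour.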

[1] = dose: 100.0 mg/kg/injection, schedule: Q01DX009 (ip), vehicle: saline
[2] = dose: 200.0 mg/kg/injection, schedule: Q01DX009 (ip), vehicle: saline
[3] = dose: 25.0 mg/kg/injection, schedule: Q04DX003 (ip), vehicle: saline with Tween-80
[4] = dose: 100.0 mg/kg/injection, schedule: Q01DX009 (ip), vehicle: saline with Tween-80
[5] = dose: 200.0 mg/kg/injection, schedule: Q01DX009 (ip), vehicle: saline with Tween-80
[6] = dose: 200.0 mg/kg/injection, schedule: Q04DX003 (ip), vehicle: saline with Tween-80
[7] = dose: 400.0 mg/kg/injection, schedule: Q01DX001 (ip), vehicle: saline with Tween-80
[8] = dose: 132.0 mg/kg/injection, schedule: Q04DX003 (ip), vehicle: saline with Tween-80
[9] = dose: 400.0 mg/kg/injection, schedule: Q01DX009 (ip), vehicle: Klucel (hydroxypropylcellulose) (HPC)

SMILES: CCCCCC(C[N+](C)(C)C)C(=O)/C=C/c1ccc(Cl)cc1 (configuration not stated)
- survivor count (dose: 25.0 mg/kg/injection, schedule: Q01DX001 (ip), vehicle: Klucel (hydroxypropylcellulose) (HPC)): 5 of 6
- survivor count (dose: 100.0 mg/kg/injection, schedule: Q01DX001 (ip), vehicle: Klucel (hydroxypropylcellulose) (HPC)): 3 of 6
- survivor count (dose: 200.0 mg/kg/injection, schedule: Q01DX001 (ip), vehicle: Klucel (hydroxypropylcellulose) (HPC)): 1 of 6

SMILES: Nc1nc(N)nc(N)n1
- survivor count (dose: 1500.0 mg/kg/injection, schedule: Q01DX009 (ip), vehicle: Klucel (hydroxypropylcellulose) (HPC)): 0 of 6

SMILES: Cc1ccn(C)c(=O)c1
- survivor count (dose: 400.0 mg/kg/injection, schedule: Q01DX009 (ip), vehicle: saline): 6 of 6

SMILES: CCN=C=NCCCN(C)C
- T/C (dose: 53.0 mg/kg/injection, schedule: Q04DX003 (ip), vehicle: saline): 129 % of control
- T/C (dose: 80.0 mg/kg/injection, schedule: Q04DX003 (ip), vehicle: saline): 141 % of control [5 of 6 alive]
- survivor count (dose: 120.0 mg/kg/injection, schedule: Q01DX009 (ip), vehicle: saline): 4 of 6
- survivor count (dose: 120.0 mg/kg/injection, schedule: Q04DX003 (ip), vehicle: saline): 3 of 6

SMILES: CC1=CC2C(O)(CC(CO)=CC3C4C(C)(C)C4(OC(=O)c4ccccc4)C(OC(=O)c4ccccc4)C(C)C32O)C1=O (configuration not stated)
- survivor count (dose: 6.2 micrograms/kg/injection, schedule: Q01DX009 (ip), vehicle: saline with Tween-80): 4 of 4
- T/C (dose: 25.0 micrograms/kg/injection, schedule: Q01DX009 (ip), vehicle: saline with Tween-80): 126 % of control
- T/C (dose: 100.0 micrograms/kg/injection, schedule: Q01DX009 (ip), vehicle: saline with Tween-80): 126 % of control
- T/C (dose: 400.0 micrograms/kg/injection, schedule: Q01DX009 (ip), vehicle: gum acacia): 139 % of control

SMILES: CC([OH2+])CNCCN.CC([OH2+])CNCCN.[Cu+2].[O-][Cl+3]([O-])([O-])[O-] (configuration not stated)
- survivor count (dose: 50.0 mg/kg/injection, schedule: Q01DX009 (ip), vehicle: saline): 1 of 6
- survivor count [1]: 0 of 6
- survivor count [2]: 0 of 6

SMILES: CN(C)c1ccc(/C=C2\C=Cc3ccccc32)cc1
- survivor count [3]: 6 of 6
- survivor count (dose: 50.0 mg/kg/injection, schedule: Q04DX003 (ip), vehicle: saline with Tween-80): 6 of 6
- survivor count [4]: 6 of 6
- survivor count (dose: 100.0 mg/kg/injection, schedule: Q04DX003 (ip), vehicle: saline with Tween-80): 6 of 6
- survivor count [5]: 6 of 6
- survivor count [6]: 6 of 6
- survivor count (dose: 400.0 mg/kg/injection, schedule: Q01DX009 (ip), vehicle: saline with Tween-80): 4 of 6 and 6 of 6

SMILES: O=c1oc(-c2ccccc2)nc2cc(Cl)ccc12
- survivor count [3]: 6 of 6

SMILES: Clc1nc(Cl)c(Nc2ccn[nH]2)nc1Cl
- survivor count [5]: 2 of 6

SMILES: [O-]c1c(Cl)c(Cl)c(O[P+](c2ccccc2)(c2ccccc2)c2ccccc2)c(Cl)c1Cl
- T/C (dose: 25.0 mg/kg/injection, schedule: Q01DX009 (ip), vehicle: saline): 142 % of control

SMILES: CCCCCCCCOC(=O)c1ccc(OP(=O)(N(C)C)N(C)C)cc1
- survivor count [4]: 4 of 6

SMILES: NCCCC(NC(=O)CCCCCCCCN=C(N)N)C(O)CCCCCCCCN=C(N)N (configuration not stated)
- survivor count (dose: 1.88 mg/kg/injection, schedule: Q01DX010 (ip), vehicle: saline): 6 of 6
- survivor count (dose: 7.5 mg/kg/injection, schedule: Q01DX010 (ip), vehicle: saline): 6 of 6
- survivor count (dose: 15.0 mg/kg/injection, schedule: Q01DX010 (ip), vehicle: saline): 0 of 6

SMILES: O=Cc1c2ccc(Cl)cc2nc2cc(Cl)ccc12
- survivor count (dose: 100.0 mg/kg/injection, schedule: Q01DX001 (ip), vehicle: saline with Tween-80): 6 of 6
- survivor count [7]: 6 of 6

SMILES: CN(C=O)C(C(=O)Nc1cccc2c(OC(=O)C(N(C)C=O)(N(C)C=O)N(C)C=O)c(N=Nc3ccc(S(=O)(=O)Nc4nccs4)cc3)cc(N=Nc3ccc(S(=O)(=O)Nc4nccs4)cc3)c12)(N(C)C=O)N(C)C=O (tested in a mixture with another compound)
- T/C (dose: 50.0 mg/kg/injection, schedule: Q01DX005 (ip), vehicle: saline with Tween-80): 136 % of control
- T/C (dose: 100.0 mg/kg/injection, schedule: Q01DX005 (ip), vehicle: saline with Tween-80): 134 % of control
- T/C (dose: 200.0 mg/kg/injection, schedule: Q01DX005 (ip), vehicle: saline with Tween-80): 137 % of control

SMILES: NC(=O)c1cc([N+](=O)[O-])c(Cl)c([N+](=O)[O-])c1
- survivor count (dose: 20.0 mg/kg/injection, schedule: Q01DX009 (ip), vehicle: Klucel (hydroxypropylcellulose) (HPC)): 6 of 6
- survivor count (dose: 20.0 mg/kg/injection, schedule: Q04DX003 (ip), vehicle: Klucel (hydroxypropylcellulose) (HPC)): 4 of 6
- survivor count (dose: 40.0 mg/kg/injection, schedule: Q01DX009 (ip), vehicle: Klucel (hydroxypropylcellulose) (HPC)): 0 of 6

SMILES: COc1cc(Br)c(/C=C(\C)[N+](=O)[O-])cc1OC
- survivor count [7]: 0 of 6

SMILES: CS(=O)(=O)OCCN(CCOS(C)(=O)=O)c1ccc(C(=O)O)cc1
- T/C [8]: 145 % of control
- T/C [6]: 136 % of control

SMILES: CCSc1ncnc2c1ncn2CN1CCOCC1
- T/C [1]: 130 % of control
- survivor count (dose: 220.0 mg/kg/injection, schedule: Q01DX009 (ip), vehicle: saline): 5 of 6

SMILES: C=CC(=O)NCNC(=O)CCBr
- T/C [8]: 125 % of control

SMILES: CC(=O)OCc1cc2ccccc2nc1C
- survivor count [4]: 6 of 6

SMILES: O=C(CC(O)(C(F)(F)F)C(F)(F)F)c1cccs1
- T/C [6]: 125 % of control [5 of 6 alive]
- survivor count (dose: 300.0 mg/kg/injection, schedule: Q04DX003 (ip), vehicle: saline with Tween-80): 0 of 6

SMILES: Cc1ccc(C)c(Nc2cc(=O)[nH]c(=O)[nH]2)c1
- survivor count (dose: 400.0 mg/kg/injection, schedule: Q01DX001 (ip), vehicle: Klucel (hydroxypropylcellulose) (HPC)): 2 of 6

SMILES: COc1cc2cc3c4cc(OC)c(OC)cc4cc[n+]3c(CCC(=O)O)c2cc1OC (tested in a mixture with another compound)
- survivor count [9]: 1 of 3

SMILES: O=C(O)c1c[nH]c2nccnc12
- survivor count (dose: 50.0 mg/kg/injection, schedule: Q01DX009 (ip), vehicle: water): 6 of 6
- survivor count (dose: 200.0 mg/kg/injection, schedule: Q01DX009 (ip), vehicle: water): 4 of 6
- survivor count (dose: 400.0 mg/kg/injection, schedule: Q01DX009 (ip), vehicle: water): 5 of 6

SMILES: O=NN(CCCl)C(=O)Nc1ccc(NC(=O)N(CCCl)N=O)cc1
- T/C (dose: 1.0 mg/kg/injection, schedule: Q04DX003 (ip), vehicle: Klucel (hydroxypropylcellulose) (HPC)): 127 and 134 % of control
- T/C (dose: 67.0 mg/kg/injection, schedule: Q01DX009 (ip), vehicle: Klucel (hydroxypropylcellulose) (HPC)): 134 % of control
- T/C (dose: 100.0 mg/kg/injection, schedule: Q01DX009 (ip), vehicle: Klucel (hydroxypropylcellulose) (HPC)): 126, 140, 165, 180 % of control
- survivor count [9]: 5 of 6

SMILES: COc1cc(NC(C)CCCN)c2nccc(C)c2c1 (configuration not stated)
- survivor count [2]: 2 of 6

Source: PubChem BioAssay AID328 (DTP/NCI, 2004)
